From the supplement of paper PMC10849652
Some of the results follow.

Sequences of proteins named here, by UniProt entry; tags and fusion partners are left off. A change or cut given only in a name is not applied to a line headed by its entry.
UniProt Q8N7B9: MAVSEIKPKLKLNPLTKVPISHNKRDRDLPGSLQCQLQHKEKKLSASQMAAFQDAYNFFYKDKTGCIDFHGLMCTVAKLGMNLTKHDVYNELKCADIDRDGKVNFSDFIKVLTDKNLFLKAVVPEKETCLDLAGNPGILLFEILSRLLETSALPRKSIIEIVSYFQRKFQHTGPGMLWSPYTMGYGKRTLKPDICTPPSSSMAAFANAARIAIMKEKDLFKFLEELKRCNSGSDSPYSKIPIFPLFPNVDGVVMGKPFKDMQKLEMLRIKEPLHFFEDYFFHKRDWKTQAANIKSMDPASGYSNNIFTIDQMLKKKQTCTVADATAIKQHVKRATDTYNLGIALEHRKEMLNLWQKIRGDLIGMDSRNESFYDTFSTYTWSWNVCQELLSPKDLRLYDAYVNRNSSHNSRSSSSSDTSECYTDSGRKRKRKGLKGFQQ
UniProt Q08426: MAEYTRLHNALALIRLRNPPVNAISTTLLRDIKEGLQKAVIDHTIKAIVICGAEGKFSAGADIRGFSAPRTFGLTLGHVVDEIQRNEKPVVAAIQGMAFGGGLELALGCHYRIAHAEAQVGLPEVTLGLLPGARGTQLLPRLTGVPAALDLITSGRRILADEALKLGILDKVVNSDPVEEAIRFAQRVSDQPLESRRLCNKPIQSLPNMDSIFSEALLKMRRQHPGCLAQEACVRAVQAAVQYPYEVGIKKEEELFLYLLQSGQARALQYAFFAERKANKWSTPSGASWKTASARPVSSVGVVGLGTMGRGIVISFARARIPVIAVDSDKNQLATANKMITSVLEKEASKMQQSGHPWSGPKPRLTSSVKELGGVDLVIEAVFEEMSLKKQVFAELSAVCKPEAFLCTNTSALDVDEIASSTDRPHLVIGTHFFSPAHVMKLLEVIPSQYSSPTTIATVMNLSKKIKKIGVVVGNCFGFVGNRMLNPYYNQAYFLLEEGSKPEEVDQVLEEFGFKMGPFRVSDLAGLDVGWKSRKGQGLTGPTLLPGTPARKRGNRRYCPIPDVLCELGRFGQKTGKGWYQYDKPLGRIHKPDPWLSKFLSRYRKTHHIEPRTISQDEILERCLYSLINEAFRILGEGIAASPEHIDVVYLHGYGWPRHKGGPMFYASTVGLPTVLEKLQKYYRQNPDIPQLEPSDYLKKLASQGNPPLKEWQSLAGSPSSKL
UniProt Q6XUX3: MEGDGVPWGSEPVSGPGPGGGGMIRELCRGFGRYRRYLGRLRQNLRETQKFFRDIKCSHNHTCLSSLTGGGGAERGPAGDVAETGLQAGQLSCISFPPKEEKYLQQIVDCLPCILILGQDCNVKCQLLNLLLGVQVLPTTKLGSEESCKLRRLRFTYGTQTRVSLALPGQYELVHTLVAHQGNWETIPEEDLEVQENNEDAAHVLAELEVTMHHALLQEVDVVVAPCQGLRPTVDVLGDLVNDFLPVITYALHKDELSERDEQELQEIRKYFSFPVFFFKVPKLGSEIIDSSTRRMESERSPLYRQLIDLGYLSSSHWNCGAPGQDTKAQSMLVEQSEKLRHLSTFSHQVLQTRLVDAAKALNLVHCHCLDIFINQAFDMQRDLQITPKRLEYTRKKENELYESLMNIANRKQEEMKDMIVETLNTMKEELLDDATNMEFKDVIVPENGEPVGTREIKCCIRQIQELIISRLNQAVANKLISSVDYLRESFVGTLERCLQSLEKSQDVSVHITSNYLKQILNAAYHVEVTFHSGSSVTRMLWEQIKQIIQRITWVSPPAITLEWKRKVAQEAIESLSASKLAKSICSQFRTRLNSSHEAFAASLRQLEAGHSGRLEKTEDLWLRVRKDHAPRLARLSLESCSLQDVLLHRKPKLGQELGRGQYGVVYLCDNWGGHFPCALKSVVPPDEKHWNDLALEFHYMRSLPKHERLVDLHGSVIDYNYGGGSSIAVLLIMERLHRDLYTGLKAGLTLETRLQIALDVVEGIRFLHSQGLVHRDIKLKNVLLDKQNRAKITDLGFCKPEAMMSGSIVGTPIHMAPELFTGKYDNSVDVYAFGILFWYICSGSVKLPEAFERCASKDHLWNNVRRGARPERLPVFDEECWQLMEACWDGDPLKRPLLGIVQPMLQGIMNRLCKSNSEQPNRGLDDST

What was measured:
Experiment in all cases: log2 fold change, soluble protein after heating vs DMSO (PISA); higher = thermal stabilisation; K562 lysate, 10 uM; active = over 0.2 and 3.5 SD of the protein, either way, in both replicates (recomputed)
vorinostat = compound: O=C(CCCCCCC(=O)Nc1ccccc1)NO [vorinostat]
Procedure, shortened: (§1)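 Thermal stability, expressed as log-two fold change relative to solvent controls, is given from duplicates. Crude K562 extract in PBS pH 7.4 with 1 mM MgCl2, at 1 mg/mL protein, was treated with 10 μM compound for 30 min and heated in aliquots for 3 min across 48°C-58°C. After pooling, adjustment to 0.5% NP-40 at 4°C and centrifugation at 21,000xg for 90 min, supernatant protein was measured by TMTpro 16plex LC-MS/MS with channel sums equalised.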

silmitasertib = compound: O=C(O)c1ccc2c(c1)nc(Nc1cccc(Cl)c1)c1ccncc12 [silmitasertib]
Procedure, shortened: as §1

[1] = compound: O=C1NC(=O)C(c2cnc3ccccn23)=C1c1cn2c3c(cc(F)cc13)CN(C(=O)N1CCCCC1)CC2
Procedure, shortened: as §1

entospletinib = compound: c1cn2cc(-c3ccc4cn[nH]c4c3)nc(Nc3ccc(N4CCOCC4)cc3)c2n1 [entospletinib]
Procedure, shortened: as §1

Row | Target | log2 fold change (vorinostat) | log2 fold change (silmitasertib) | log2 fold change [1] | log2 fold change (entospletinib)
1 | EFCAB3 (UniProt Q8N7B9) | inactive: -0.159 | inactive: 0.095 | inactive: -0.09 | –
2 | EHHADH (UniProt Q08426) | active: 0.706 | inactive: -0.035 | inactive: -0.048 | inactive: -0.013
3 | DSTYK (UniProt Q6XUX3) | inactive: -0.164 | inactive: 0.216 | inactive: -0.006 | –
